Laboratory results published in patent US20250277039A1 (PURDUE RESEARCH FOUNDATION, published 2025).
No constants are given. Whether binding was seen depends on the method and setting. Some results given as binding are weak or reduced against the parent protein; the word gives no strength. Sequences can lack the tags named with a protein.

Columns and labels:
[1] = target: T1, His-tagged canine PD-L1 protein (6X His tagged extracellular domain of cPD-L1) (canine) (UniProt E2RKZ5); test: PD-L1-His on a Ni-NTA plate, PD-1-hFc detected with anti-human IgG Fc secondary (FIG. 3D)
T1 sequence: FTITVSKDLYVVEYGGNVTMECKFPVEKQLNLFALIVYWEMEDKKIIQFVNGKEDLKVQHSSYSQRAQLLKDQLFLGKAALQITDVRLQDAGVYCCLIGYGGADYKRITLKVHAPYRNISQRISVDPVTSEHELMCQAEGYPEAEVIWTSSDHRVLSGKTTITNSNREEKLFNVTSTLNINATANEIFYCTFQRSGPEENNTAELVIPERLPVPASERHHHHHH

[2] = target: T1, His-tagged canine PD-L1 protein (6X His tagged extracellular domain of cPD-L1) (canine); test: plate assay: His-tagged PD-L1 on Ni-NTA 96-well plate, PD-1-hFc, HRP anti-human IgG Fc secondary, OD450 given as fold ratio

binding [1]: binds
binding [2]: binds
B1: mPD-1-hFc protein (Fc fusion, mouse, UniProt Q02242 25-167, looked up)
chain: LEVPNGPWRSLTFYPAWLTVSEGANATFTCSLSNWSEDLMLNWNRLSPSNQTEKQAAFCNGLSQPVQDARFQIIQLPNRHDFHMNILDTRRNDSGIYLCGAISLHPKAKIEESPGAELVVTERILETSTRYPSPSPKPEGRFQ
notes: also called mouse PD-1; not shown: human Fc
